Measurements reported in US20260185150.
For some of these results: Negatives hold for the conditions tested. For some of these results: Protein sequences can lack the tags named with them. For some of these results: For at least one entry, the source does not settle the construct or the ends of the probe.

What was measured:
[1] = biological target: T1, Bst DNA polymerase (Bacillus stearothermophilus) (UniProt P52026); assay: activity assay; settings: purified recombinant protein, label: target 5' quencher and internal fluorescein-T, folded or branched DNA
T1 sequence (looked up, limits assumed): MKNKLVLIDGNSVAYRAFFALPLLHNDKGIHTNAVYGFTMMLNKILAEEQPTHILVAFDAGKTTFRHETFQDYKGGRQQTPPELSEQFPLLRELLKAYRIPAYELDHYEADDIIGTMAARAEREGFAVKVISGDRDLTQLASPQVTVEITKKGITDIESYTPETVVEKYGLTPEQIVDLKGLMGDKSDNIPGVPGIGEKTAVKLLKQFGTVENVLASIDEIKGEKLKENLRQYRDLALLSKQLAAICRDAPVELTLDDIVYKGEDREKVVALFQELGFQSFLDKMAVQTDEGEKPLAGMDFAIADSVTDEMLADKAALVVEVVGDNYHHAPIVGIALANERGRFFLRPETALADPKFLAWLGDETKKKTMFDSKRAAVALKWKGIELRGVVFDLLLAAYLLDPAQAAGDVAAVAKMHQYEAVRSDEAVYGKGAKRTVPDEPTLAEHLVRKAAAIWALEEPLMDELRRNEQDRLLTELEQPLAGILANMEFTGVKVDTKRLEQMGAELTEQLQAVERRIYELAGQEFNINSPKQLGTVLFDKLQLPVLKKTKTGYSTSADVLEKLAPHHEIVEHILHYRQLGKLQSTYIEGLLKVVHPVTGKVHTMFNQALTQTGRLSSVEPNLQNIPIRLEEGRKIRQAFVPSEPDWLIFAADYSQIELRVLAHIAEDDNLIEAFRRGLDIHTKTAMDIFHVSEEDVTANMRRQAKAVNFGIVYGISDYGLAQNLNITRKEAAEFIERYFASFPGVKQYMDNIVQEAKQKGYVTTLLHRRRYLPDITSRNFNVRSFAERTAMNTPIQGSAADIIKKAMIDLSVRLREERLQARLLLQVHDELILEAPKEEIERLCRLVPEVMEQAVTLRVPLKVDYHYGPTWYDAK

[2] = biological target: Nt.BspQI (triple mutant of BspQI, top-strand nickase) (UniProt D2D3S6); assay: enzyme reaction in vitro; settings: 3' phosphate, implies bottom strand nuclease activity, purified recombinant protein, label: target 5' quencher and internal fluorescein-T, folded or branched DNA, variant of Guide C + hairpin target
[3] = 3' phosphate, extension blocked

Sequence: GACTCGATATCGAGTCAGCTGAGACTGCGCCT / ACCGGCGGTTAACCGCCGGTAGGCGCAGTCTCAGCTCGTGCT [Guide 4 methoxy blockage 3' phosphate + hairpin target]
- activity on this sequence ([1]; 2'-OMe on last 5 nt (mCmGmCmCmU), 3' phosphate, extension blocked): not active

Sequence: GAGAGCATTACGAGTCAGCTGAGACTGCGCCT / ACCGGCGGTTAACCGCCGGTAGGCGCAGTCTCAGCTCGTGCT [Guide 6 5' mismatch 3' phosphate + hairpin target]
- activity on this sequence [1, 3]: not active

Sequence: GACTCGATATCGAGTCAGCTGAGACTGCGCCT / ACCGGCGGTTAACCGCCGGTAGGCGCAGTCTCAGCTCGTGCT [Guide 5 methoxy with terminal DNA base + hairpin target]
- activity on this sequence ([1]; 2'-OMe mCmGmCm before terminal DNA (printed mCmGmCmCT), primer extension, fluorescence): active

Sequence: GAAGAGCGATATCGCTCTTCAGCTGAGACTGCGCCT / ACCGGCGGTTAACCGCCGGTAGGCGCAGTCTCAGCTCGTGCT [Guide D + hairpin target]
- activity on this sequence [2]: active

Sequence: GAGAGCATTACGAGTCAGCTGAGACTGCGCCT / ACCGGCGGTTAACCGCCGGTAGGCGCAGTCTCAGCTCGTGCT [Guide 10 methoxy with 5' mismatch + hairpin target]
- activity on this sequence ([1]; 2'-OMe on last 5 nt, extension blocked): not active

Sequence: GACTCGATATCGAGTCAGCTGAGACTGCGCCT / ACCGGCGGTTAACCGCCGGTAGGCGCAGTCTCAGCTCGTGCT [Guide 2 (=Guide 9) all DNA 3' phosphate + hairpin target]
- activity on this sequence [1, 3]: not active

Sequence: GAAGAGCGATATCGCTCTTCAGCTGAGACTGCGCCT / ACCGGCGGTTAACCGCCGGTAGGCGCAGTCTCAGCTCGTGCT [Guide E + hairpin target]
- activity on this sequence ([2]; 2'-OMe on last 6 nt as printed TmGmCmGmCmCmU): active

Sequence: GAGAGCATTACGAGTCAGCTGAGACTGCGCCT / ACCGGCGGTTAACCGCCGGTAGGCGCAGTCTCAGCTCGTGCT [Guide 8 5' mismatch + hairpin target]
- activity on this sequence ([1]; primer extension, fluorescence): active

Sequence: GACTCGATATCGAGTCAGCTGAGACTGCGCCT / ACCGGCGGTTAACCGCCGGTAGGCGCAGTCTCAGCTCGTGCT [Guide 3 (=Guide 7) methoxy blockage + hairpin target]
- activity on this sequence ([1]; 2'-OMe on last 5 nt (mCmGmCmCmU), extension blocked): not active

Sequence: GACTCGATATCGAGTCAGCTGAGACTGCGCCT / ACCGGCGGTTAACCGCCGGTAGGCGCAGTCTCAGCTCGTGCT [Guide 1 (=Guide 11) all DNA + hairpin target]
- activity on this sequence ([1]; primer extension, fluorescence): active
